This is an account of results in the supplement of paper PMC12067093, “Discovery and optimisation of a covalent ligand for TRIM25 and its application to targeted protein ubiquitination” (Chemical Science, 2025).

Chains of the proteins cited; added tags and fusions are not shown. Lines headed by an entry give the natural chain unless they say otherwise; changes in a name come on top.
UniProt Q13905: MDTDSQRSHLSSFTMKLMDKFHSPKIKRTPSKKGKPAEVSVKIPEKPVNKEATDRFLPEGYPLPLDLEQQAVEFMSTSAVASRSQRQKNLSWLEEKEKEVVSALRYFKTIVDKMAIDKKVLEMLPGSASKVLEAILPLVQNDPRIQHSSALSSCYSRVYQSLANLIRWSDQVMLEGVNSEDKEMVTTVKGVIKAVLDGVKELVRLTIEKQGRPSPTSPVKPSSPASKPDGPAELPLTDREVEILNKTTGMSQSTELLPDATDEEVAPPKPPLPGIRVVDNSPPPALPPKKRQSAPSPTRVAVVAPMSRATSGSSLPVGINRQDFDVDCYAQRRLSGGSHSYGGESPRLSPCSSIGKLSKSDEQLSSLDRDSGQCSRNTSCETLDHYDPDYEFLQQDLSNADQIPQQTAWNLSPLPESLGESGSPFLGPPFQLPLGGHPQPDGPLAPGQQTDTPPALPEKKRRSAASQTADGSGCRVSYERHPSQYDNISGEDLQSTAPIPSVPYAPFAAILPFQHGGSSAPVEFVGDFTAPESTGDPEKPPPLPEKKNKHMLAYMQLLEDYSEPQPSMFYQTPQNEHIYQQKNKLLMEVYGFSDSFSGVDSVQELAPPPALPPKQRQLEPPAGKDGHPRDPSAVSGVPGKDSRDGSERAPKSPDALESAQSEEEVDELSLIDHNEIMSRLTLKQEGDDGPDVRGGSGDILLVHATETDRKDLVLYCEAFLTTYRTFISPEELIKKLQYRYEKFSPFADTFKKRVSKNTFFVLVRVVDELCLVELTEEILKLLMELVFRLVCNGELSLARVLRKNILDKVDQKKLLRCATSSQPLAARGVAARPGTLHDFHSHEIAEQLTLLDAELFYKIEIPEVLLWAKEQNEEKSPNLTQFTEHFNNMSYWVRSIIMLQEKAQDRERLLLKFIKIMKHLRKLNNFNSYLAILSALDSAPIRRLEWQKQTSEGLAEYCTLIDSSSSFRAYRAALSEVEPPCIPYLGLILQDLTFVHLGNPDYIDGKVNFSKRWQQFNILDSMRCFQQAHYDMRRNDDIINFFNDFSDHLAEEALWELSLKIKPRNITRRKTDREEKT
UniProt P43487, whole entry, looked up: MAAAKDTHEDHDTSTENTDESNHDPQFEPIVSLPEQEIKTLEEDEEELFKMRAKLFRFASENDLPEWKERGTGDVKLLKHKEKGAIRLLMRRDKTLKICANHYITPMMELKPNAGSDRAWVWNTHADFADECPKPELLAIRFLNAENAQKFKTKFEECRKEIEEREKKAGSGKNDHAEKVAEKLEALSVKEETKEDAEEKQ
UniProt Q96PM5: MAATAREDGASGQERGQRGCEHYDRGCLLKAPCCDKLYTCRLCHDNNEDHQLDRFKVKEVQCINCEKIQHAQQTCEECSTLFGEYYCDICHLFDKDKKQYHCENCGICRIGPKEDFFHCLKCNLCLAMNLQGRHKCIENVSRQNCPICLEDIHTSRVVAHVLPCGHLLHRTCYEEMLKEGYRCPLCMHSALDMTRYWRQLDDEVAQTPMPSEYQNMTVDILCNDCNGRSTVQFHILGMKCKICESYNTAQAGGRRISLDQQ
UniProt Q9HBH5: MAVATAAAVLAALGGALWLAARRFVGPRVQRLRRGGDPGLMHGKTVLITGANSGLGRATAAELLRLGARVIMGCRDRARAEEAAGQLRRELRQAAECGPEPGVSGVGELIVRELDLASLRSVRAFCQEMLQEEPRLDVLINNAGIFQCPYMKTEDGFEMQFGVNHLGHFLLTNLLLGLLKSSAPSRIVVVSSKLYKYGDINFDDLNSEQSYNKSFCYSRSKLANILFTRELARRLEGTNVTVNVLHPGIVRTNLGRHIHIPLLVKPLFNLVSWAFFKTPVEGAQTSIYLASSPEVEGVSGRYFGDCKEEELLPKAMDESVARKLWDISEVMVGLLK
UniProt Q06330: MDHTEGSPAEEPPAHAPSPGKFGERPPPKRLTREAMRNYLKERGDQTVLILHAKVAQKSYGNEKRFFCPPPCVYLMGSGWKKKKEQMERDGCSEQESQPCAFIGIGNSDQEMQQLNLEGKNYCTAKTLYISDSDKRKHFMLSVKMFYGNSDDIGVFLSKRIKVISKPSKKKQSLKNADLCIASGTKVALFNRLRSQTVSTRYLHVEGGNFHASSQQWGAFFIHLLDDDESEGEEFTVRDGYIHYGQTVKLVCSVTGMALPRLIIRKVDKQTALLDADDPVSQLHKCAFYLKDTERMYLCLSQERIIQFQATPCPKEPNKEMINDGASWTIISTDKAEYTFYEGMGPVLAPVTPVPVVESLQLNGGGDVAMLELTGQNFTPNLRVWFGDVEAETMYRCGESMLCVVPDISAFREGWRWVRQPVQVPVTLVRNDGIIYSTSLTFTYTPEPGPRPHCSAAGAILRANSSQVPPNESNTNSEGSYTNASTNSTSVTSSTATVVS
UniProt P62834: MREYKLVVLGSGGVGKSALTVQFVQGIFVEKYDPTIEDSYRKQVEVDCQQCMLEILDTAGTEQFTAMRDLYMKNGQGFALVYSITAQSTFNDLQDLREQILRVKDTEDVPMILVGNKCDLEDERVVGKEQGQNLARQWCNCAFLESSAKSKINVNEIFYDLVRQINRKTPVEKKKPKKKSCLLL
UniProt Q14644: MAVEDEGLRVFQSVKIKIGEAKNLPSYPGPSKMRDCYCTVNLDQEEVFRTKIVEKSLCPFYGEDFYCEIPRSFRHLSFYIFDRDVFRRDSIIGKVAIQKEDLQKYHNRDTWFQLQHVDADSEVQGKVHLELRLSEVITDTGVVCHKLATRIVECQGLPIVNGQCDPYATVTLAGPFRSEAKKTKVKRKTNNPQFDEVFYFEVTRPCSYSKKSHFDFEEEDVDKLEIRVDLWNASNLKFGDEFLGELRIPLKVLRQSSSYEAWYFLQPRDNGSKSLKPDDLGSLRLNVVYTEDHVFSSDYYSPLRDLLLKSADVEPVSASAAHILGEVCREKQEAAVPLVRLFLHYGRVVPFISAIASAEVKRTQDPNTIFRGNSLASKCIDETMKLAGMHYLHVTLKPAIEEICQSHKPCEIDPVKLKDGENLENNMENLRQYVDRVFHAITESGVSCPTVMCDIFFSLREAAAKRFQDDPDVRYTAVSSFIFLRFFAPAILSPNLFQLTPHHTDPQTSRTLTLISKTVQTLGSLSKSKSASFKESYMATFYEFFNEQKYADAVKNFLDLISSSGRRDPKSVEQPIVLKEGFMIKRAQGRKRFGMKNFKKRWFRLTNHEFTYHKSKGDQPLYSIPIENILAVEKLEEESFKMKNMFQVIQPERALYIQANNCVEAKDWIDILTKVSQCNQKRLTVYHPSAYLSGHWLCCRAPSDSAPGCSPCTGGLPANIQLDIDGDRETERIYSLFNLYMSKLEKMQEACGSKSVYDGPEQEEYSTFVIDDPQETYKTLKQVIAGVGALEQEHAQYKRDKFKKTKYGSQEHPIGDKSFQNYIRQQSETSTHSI
UniProt Q9BYM8: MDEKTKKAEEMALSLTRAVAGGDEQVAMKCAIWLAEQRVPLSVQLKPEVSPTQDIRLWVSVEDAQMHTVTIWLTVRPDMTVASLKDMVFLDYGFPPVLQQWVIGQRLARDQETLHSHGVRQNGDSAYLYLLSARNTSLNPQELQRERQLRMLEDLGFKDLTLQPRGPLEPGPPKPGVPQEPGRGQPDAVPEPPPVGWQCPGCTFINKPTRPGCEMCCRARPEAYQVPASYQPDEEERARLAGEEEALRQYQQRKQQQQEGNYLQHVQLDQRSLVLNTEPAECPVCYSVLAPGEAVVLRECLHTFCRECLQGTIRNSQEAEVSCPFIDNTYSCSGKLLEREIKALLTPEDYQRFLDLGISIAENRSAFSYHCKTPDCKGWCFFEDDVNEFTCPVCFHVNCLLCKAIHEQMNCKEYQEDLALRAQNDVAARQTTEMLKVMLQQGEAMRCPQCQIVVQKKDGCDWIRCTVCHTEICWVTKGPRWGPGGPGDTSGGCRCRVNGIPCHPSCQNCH
UniProt Q8TDY2, whole entry, looked up: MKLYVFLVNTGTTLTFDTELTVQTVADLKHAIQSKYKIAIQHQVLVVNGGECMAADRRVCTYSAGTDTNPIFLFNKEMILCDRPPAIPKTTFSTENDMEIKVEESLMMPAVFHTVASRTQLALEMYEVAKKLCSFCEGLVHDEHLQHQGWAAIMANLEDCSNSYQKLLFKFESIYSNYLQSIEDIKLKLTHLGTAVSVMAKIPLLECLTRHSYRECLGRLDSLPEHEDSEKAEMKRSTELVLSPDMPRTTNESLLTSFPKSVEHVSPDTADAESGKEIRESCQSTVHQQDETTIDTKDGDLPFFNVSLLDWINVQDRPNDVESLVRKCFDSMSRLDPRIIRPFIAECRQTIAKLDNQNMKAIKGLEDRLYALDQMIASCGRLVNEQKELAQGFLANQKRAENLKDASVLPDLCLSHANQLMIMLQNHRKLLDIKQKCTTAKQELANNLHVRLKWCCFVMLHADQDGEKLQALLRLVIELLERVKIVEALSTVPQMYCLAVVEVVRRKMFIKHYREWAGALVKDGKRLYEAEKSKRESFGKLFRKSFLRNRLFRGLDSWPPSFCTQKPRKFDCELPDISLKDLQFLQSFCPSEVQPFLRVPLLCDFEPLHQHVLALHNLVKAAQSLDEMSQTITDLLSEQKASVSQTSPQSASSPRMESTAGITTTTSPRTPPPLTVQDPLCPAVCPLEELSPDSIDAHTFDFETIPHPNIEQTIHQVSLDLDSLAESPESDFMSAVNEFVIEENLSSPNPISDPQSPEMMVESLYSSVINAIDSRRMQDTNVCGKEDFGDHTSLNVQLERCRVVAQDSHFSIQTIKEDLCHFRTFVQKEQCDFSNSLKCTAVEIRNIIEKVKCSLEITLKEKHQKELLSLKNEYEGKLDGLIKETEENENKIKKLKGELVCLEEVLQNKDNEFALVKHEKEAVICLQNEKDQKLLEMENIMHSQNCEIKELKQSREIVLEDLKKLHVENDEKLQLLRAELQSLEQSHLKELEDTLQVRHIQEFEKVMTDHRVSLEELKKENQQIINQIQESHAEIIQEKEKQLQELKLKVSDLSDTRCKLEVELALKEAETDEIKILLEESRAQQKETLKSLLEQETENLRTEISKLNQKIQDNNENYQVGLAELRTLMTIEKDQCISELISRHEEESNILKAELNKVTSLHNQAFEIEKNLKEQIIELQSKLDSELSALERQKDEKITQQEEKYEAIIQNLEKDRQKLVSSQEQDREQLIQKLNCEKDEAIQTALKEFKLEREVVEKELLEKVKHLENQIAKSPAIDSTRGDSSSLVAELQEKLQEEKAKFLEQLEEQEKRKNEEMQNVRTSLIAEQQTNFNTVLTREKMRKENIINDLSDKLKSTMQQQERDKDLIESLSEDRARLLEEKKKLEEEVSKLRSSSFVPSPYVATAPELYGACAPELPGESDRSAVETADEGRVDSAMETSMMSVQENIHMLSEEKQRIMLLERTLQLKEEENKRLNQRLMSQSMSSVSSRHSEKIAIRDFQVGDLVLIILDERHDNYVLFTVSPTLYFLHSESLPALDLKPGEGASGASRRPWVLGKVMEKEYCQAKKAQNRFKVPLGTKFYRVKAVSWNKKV
UniProt Q9H2L5: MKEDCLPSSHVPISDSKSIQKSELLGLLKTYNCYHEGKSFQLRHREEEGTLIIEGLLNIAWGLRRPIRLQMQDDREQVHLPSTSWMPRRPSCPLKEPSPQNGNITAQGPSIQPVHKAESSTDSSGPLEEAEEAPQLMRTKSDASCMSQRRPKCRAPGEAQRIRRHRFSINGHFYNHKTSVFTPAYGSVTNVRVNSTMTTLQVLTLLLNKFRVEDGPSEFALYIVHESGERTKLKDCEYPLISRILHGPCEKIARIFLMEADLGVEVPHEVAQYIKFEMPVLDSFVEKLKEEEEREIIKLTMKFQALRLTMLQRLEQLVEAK
UniProt P46060: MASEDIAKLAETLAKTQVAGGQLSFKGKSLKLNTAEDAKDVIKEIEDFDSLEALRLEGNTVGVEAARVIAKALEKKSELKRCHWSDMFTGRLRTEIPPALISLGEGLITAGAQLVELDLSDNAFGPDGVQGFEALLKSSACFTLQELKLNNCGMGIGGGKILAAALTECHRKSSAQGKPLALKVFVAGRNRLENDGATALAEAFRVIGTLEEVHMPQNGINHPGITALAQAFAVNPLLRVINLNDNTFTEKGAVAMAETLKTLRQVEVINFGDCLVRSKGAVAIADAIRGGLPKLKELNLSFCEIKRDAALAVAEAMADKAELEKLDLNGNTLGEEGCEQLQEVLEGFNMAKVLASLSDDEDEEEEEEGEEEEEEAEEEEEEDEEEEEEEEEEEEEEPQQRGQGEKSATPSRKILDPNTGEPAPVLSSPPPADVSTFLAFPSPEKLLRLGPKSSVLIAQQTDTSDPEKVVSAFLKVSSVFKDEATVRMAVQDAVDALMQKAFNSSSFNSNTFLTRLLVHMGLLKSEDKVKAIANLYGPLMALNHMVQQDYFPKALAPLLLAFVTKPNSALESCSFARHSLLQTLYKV

Some of the results follow.
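Note: competitive profiling in live THP-1 cells: cysteine peptides tagged with an iodoacetamide desthiobiotin (IA-DTB) probe, intensity after compound treatment relative to DMSO-treated cells.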

Compound in this experiment: Cc1cc(ccc1-c1ccccc1)C(=O)N1CCCN(CC1)C(=O)CCl [compound 10]
Put plainly: probe-labelled cysteine peptide fold change vs DMSO (competition) (log2 fold change); higher = less target engagement (more negative = stronger competition). Particulars: 50 µM; THP-1; incubation time: 4 h.
Turning to “RAPGEF1_Q13905_958_QTSEGLAEYCTLIDSSSSFR (UniProt Q13905)”, the “probe-labelled cysteine peptide fold change” value is -0.383. The result for “RBFA_Q8N0V3_136_VSLTPDFSACR (UniProt Q8N0V3)” reads -0.448.

Turning to “RANBP1_P43487_99_ICANHYITPMMELK (UniProt P43487)”, the “probe-labelled cysteine peptide fold change” value was 0.438. The result for “RANBP2_P49792_1375_CVSCQNLNPSNK (UniProt P49792)” reads -0.112; that for “RALY_Q9UKM9_51_VAGCSVHK (UniProt Q9UKM9)”, 0.07. Next, “RCHY1_Q96PM5_87_IQHAQQTCEECSTLFGEYYCDICHLFDK (UniProt Q96PM5)”: -0.293. The result for “RBM15B_Q8NDT2_323_GRPYGYPAVCEEDLMPEDDQR (UniProt Q8NDT2)” reads -0.481. As for “RASA1_P20936_261_FSSLSDLIGYYSHVSCLLK (UniProt P20936)”, the “probe-labelled cysteine peptide fold change” value is 0.101. The result for “RANBP2_P49792_815_MICQQVEAIKK (UniProt P49792)” reads -0.0925.

With “RDH14_Q9HBH5_148_LDVLINNAGIFQCPYMK (UniProt Q9HBH5)”, the “probe-labelled cysteine peptide fold change” value was found to be 0.171. The result for “RBBP5_Q15291_43_WGTLLAVGCNDGR (UniProt Q15291)” reads 0.0172; that for “RBPJ_Q06330_68+72_FFCPPPCVYLMGSGWK (UniProt Q06330)”, 0.0548; that for “RAP1A_P62834_141_QWCNCAFLESSAK (UniProt P62834)”, -0.308. Take “RASA3_Q14644_144_LSEVITDTGVVCHK (UniProt Q14644)”: the “probe-labelled cysteine peptide fold change” value was -0.21. For the target “RBBP7_Q16576_202_EGYGLSWNSNLSGHLLSASDDHTVCLWDINAGPK (UniProt Q16576)”, the “probe-labelled cysteine peptide fold change” value came to 0.0275.

With “RBM28_Q9NW13_97_NENSECPK (UniProt Q9NW13)”, the “probe-labelled cysteine peptide fold change” value is 0.16. Take “RBM19_Q9Y4C8_293_EPTTCHTVK (UniProt Q9Y4C8)”: the “probe-labelled cysteine peptide fold change” value is -0.0947. Next, “RANBP3_Q9H6Z4_406_VEVITGEEAESNVLQMQCK (UniProt Q9H6Z4)”: 0.146. Next, “RBM14_Q96PK6_108_VIECDVVK (UniProt Q96PK6)”: 0.011. Next, “RBM34_P42696_196_TVFVGNLPVTCNK (UniProt P42696)”: -0.186; “RBM10_P98175_222_CGVQNFK (UniProt P98175)”: -0.156; “RBPJ_Q06330_252_LVCSVTGMALPR (UniProt Q06330)”: -0.00644.

In the case of “RAP1A_P62834_118_DTEDVPMILVGNKCDLEDERVVGK (UniProt P62834)”, the “probe-labelled cysteine peptide fold change” value is -0.88.

Turning to “RBM6_P78332_960_LACLLCR (UniProt P78332)”, the “probe-labelled cysteine peptide fold change” value worked out at 0.102. The result for “RCC2_Q9P258_337_DVACGANHTLVLDSQK (UniProt Q9P258)” reads 0.297; that for “RBM12B_Q8IXT5_837_CPSDEDFR (UniProt Q8IXT5)”, -0.0704. Next, “RBBP7_Q16576_97_VHIPNDDAQFDASHCDSDKGEFGGFGSVTGK (UniProt Q16576)”: -0.54. The result for “RAPGEF1_Q13905_1024_CFQQAHYDMR (UniProt Q13905)” reads -0.218; that for “RDH14_Q9HBH5_97_QAAECGPEPGVSGVGELIVR (UniProt Q9HBH5)”, 0.0241. Turning to “RBCK1_Q9BYM8_493_WGPGGPGDTSGGCR (UniProt Q9BYM8)”, the “probe-labelled cysteine peptide fold change” value is -0.208. With “RB1CC1_Q8TDY2_946_LLEMENIMHSQNCEIK (UniProt Q8TDY2)”, the “probe-labelled cysteine peptide fold change” value was -0.0184. The result for “RASSF4_Q9H2L5_145_SDASCMSQR (UniProt Q9H2L5)” reads -0.0535. “RB1CC1_Q8TDY2_282_ESCQSTVHQQDETTIDTK (UniProt Q8TDY2)”: the “probe-labelled cysteine peptide fold change” value is -0.693.

In the case of “RCHY1_Q96PM5_148_QNCPICLEDIHTSR (UniProt Q96PM5)”, the “probe-labelled cysteine peptide fold change” value came to 0.594. The result for “RANGAP1_P46060_573_ALAPLLLAFVTKPNSALESCSFAR (UniProt P46060)” reads 0.0613; that for “RBCK1_Q9BYM8_308_ECLQGTIR (UniProt Q9BYM8)”, -0.387. The result for “RANGAP1_P46060_169_ILAAALTECHRK (UniProt P46060)” reads -0.379. “RCHY1_Q96PM5_136_CIENVSR (UniProt Q96PM5)”: the “probe-labelled cysteine peptide fold change” value was -0.312. The result for “RCHY1_Q96PM5_65_EVQCINCEK (UniProt Q96PM5)” reads -0.314.
